Assay results published in paper PMC3282727.
Results are given in words; binding and its absence hold for the method and conditions named. Binding seen in cells or lysates may run through a third protein.

Amino acid sequences for entries named in this document (tags omitted). Residues count along the entry.
UniProt P29268, residues 26-348: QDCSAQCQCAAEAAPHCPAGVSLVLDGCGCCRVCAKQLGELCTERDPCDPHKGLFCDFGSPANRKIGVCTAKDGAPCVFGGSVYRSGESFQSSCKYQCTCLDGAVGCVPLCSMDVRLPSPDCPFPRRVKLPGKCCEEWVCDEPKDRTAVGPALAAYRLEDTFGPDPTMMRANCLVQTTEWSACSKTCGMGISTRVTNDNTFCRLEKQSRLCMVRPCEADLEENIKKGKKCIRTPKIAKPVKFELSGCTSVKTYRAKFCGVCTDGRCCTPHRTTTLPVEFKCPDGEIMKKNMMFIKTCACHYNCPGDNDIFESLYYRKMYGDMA
UniProt P05622, residues 32-1098: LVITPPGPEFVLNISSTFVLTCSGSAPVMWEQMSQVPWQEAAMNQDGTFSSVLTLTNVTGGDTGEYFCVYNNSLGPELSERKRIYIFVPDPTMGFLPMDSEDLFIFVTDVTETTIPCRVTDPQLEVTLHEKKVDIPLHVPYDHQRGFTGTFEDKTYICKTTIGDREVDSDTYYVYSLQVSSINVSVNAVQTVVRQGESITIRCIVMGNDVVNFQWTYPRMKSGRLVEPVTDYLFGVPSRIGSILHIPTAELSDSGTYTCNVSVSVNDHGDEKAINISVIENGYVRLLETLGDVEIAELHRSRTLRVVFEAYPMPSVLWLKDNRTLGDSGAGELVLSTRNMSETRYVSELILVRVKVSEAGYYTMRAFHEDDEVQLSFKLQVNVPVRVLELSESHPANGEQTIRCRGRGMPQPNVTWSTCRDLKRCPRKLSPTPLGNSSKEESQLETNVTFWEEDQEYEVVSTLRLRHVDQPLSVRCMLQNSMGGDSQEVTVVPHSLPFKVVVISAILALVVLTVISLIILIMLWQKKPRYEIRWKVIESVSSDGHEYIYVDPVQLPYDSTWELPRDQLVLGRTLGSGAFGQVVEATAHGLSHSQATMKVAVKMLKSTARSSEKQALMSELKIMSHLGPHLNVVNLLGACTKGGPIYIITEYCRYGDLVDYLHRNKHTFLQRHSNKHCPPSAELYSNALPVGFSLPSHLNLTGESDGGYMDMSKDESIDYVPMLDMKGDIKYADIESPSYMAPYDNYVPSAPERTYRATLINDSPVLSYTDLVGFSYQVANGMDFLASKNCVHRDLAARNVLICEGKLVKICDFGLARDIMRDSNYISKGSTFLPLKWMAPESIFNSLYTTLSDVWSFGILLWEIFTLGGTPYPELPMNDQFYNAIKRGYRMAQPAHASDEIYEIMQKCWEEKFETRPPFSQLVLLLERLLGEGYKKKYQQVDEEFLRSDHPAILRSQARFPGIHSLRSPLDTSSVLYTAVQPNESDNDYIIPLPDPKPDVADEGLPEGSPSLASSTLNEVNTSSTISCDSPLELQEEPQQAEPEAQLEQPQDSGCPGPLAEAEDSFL

Target: CCN2/Connective Tissue Growth Factor, HA-tagged (CCN2-HA) (UniProt P29268)
Experiment: co-IP; M-CCN2 cells treated with or without PDGF-B; immunoprecipitated with anti-HA antibody; blots probed with anti-PDGFRβ or anti-phospho (Y751) PDGFRβ

binding: no binding
Substance: PDGF receptor β (PDGFRβ) (from UniProt P05622 32-1098)
